In assay [1] the target is T1, Mei-P26 (endogenous, ovary) (Drosophila (endogenous in ovaries)) (UniProt M9PH32).
T1 sequence: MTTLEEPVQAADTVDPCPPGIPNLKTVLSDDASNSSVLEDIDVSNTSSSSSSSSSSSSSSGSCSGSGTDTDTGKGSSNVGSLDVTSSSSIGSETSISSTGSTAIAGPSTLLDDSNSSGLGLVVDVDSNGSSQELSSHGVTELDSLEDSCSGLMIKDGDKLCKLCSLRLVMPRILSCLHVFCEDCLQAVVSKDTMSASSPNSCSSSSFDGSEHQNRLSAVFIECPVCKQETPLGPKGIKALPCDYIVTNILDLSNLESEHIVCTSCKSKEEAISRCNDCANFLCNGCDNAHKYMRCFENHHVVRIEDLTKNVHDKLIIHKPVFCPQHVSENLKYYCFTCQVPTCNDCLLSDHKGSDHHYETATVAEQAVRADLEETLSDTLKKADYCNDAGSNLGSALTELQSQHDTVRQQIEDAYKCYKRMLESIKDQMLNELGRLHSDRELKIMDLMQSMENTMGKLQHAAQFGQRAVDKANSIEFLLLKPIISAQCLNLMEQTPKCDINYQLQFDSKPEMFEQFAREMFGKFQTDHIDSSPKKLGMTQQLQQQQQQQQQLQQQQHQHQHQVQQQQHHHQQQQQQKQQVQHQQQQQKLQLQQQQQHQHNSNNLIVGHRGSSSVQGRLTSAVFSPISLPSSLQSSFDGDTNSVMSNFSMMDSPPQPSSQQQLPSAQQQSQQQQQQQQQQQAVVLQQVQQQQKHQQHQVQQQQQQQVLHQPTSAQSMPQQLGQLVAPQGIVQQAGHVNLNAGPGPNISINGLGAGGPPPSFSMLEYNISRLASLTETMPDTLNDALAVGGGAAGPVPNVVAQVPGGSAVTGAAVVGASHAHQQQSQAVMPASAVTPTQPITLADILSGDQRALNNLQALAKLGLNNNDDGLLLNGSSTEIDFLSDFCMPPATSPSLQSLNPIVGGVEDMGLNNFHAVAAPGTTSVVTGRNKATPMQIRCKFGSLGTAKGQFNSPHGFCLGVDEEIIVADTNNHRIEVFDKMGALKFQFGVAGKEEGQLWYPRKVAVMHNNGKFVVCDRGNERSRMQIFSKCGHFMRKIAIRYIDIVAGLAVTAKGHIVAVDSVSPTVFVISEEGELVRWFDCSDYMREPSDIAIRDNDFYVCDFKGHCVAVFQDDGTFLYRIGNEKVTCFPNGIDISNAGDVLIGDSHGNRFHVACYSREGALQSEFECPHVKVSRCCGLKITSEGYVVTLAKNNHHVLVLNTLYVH
Put plainly: co-IP; extracts of 100 pairs of wild-type ovaries or 200 pairs of bam mutant ovaries (also ovaries with heat-shock induced Bam::HA; newly eclosed females); immunoprecipitation with anti-Mei-P26 antibodies, blots probed with anti-HA, anti-GFP, anti-Sxl.

The target of assay [2] is T2, V5-tagged Mei-P26 (Drosophila) (UniProt M9PH32).
T2 sequence: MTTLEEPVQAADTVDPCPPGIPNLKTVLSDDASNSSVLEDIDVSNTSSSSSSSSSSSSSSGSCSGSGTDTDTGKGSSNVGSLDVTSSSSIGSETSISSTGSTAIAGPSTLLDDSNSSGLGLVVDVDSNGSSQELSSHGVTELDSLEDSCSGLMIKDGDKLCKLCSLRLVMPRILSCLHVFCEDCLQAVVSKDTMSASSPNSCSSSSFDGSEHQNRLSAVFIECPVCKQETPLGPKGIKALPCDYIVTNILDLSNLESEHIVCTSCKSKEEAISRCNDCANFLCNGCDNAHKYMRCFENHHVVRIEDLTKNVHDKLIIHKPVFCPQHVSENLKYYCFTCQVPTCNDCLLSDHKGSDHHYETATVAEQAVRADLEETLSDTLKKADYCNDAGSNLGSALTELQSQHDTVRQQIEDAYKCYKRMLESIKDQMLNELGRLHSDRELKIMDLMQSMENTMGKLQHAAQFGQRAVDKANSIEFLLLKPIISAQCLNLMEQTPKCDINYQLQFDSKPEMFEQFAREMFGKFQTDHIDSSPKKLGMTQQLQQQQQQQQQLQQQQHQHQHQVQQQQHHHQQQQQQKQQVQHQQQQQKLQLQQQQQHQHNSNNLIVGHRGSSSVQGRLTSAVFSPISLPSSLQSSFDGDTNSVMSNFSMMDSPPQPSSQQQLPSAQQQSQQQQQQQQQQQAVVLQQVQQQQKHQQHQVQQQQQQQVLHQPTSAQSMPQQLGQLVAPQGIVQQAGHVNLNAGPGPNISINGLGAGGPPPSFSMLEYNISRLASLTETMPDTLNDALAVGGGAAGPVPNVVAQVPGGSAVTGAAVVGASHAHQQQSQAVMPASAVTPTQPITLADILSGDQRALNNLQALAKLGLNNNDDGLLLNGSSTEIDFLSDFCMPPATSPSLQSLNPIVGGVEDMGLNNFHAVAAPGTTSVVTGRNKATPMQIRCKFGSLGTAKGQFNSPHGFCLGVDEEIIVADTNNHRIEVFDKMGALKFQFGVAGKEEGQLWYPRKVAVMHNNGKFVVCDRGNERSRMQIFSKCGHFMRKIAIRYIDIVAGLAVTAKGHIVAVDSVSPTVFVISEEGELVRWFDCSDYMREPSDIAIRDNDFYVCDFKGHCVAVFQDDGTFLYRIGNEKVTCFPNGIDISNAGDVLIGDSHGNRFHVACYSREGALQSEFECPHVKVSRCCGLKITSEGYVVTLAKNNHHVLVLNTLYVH
Put plainly: co-IP; epitope tagged transgenes expressed in S2 cells; V5-tagged Mei-P26 immunoprecipitated, Myc-tagged Bgcn detected.

Results are given in words; binding and its absence hold for the method and conditions named. Binding seen in cells or lysates may run through a third protein. Some binding calls cover weakened binding; strength is not graded here. Sequences can lack the tags named with a protein.

B1: Sex-Lethal (Sxl) protein (endogenous, ovary) (protein, UniProt P19339 1-354)
chain: MYGNNNPGSNNNNGGYPPYGYNNKSSGGRGFGMSHSLPSGMSRYAFSPQDTEFSFPSSSSRRGYNDFPGCGGSGGNGGSANNLGGGNMCHLPPMASNNSLNNLCGLSLGSGGSDDLMNDPRASNTNLIVNYLPQDMTDRELYALFRAIGPINTCRIMRDYKTGYSFGYAFVDFTSEMDSQRAIKVLNGITVRNKRLKVSYARPGGESIKDTNLYVTNLPRTITDDQLDTIFGKYGSIVQKNILRDKLTGRPRGVAFVRYNKREEAQEAISALNNVIPEGGSQPLSVRLAEEHGKAKAAHFMSQMGVVPANVPPPPPQPPAHMAAAFNMMHRGRSIKSQQRFQNSHPYFDAKKFI
Consider B1, for which the binding entry in assay [1] is on record as “binds”.

B2: Myc-tagged Bgcn (protein, UniProt Q9W1I2 1-1215)
chain: MNHIIQDKYIPQQLLYFLAGRRCCQQFPCTFRTSEHEAFANNARSLGLRSQVVHVNGNSCVKVYKQACRHYLEEPKTLVLSSGATLNMFTLLSRKSLMGKEDLELYADLVSMKANASDLPSLHLPLPAIRPPNLRFWTEAQLNFLTAFLGHSLSDEILQSLYASRVIVYNAALCWDKSVFLPLVILDDCRNKKSNVKIMCIERQAILATYNSQRTANFFGEQLGETVGIQLPYFSAVSSSTFIIYSTAQYFLRSLTSQQFRNISHLVVNDVHLHDPYTDILLSEIRMALSSHQNLRVVLLSQMGNPKKFTDFFGEGLQLNMIKQPEVAPRVSYLNELHSCIALAGIHKGPDIYKEIPEAFRANNPRNEQMDKCLQAYGELGTDAALRPFLYAVNYDLAPVNYRHSLTGKTAVHFASELNKANHLRLLLFMGADPYIVDLFQQNAISLAAMNGNHECIDVLNSYSLHGYVVKSAKPDFVDYDLIIDIMYLLRTKPEYSPGEYSPGNILIILPTYYHIVKLNYMILSHCLTGSLQECSIFLLYDNMRNDYLQALVNASDETVKVVLATDIIESLCLKVPFKYQIDTACRLNNVYDTTSCSGDDRFEWVAKDALLRRELILQPNKGDVQCFRLISKEAYEELSETSQPSLQTMQLDKICLAVKLLSPNTIISEYLGITISPPPLINVHHAVQFLKKIDVLDDAEDVTWLGCRLMDIPVSCQLGRMLIFGILLRCLDPILTIVSSLSTADPLGIPFTEDIDNLWDRFTIYIQNSIKKERTYLSDNQFSDHFIFVRLYKEWQNRMHNRTPPLYLKDEYEFMLNGLMEQLTSIRSEIVSSLRAANLIHSRGKLSMNNLNQMSCNWHMVKAALTGGMYPNIYAVDTRKSSLKSAFSGNVSMHPNTVLRDFLEPLNISAQSFRTPWIVCNRQKSHIVYATLVVPLAVAMFSGHPRIRLSPICDSEMSLTDRNVNVFIDEWIWMVMSKATAEMVMRTRYYFFKMYHDLLKHCSELDMWRRDCEPVSQYTVLTDTLSKIFESEDGFVGFFKPPPITFLPTPQLPSLYLLSVNAHFSWAREVEENMLSKPHHFNSHFIERQFFVLYAGGDCEEFHSRNTPAFIESVLGKFVRPIDTPNRHIFVILYRKDPDMMLSISRAKFVNGVFMLQEYFRNNIPVFEILDACVSLNVQTPVFDGRLMSALIDKRVGNLIMELFAFRHHWIHKR
As for B2, the binding result in assay [2] was “binds”.

B3: GFP-tagged Bgcn (protein, UniProt Q9W1I2 1-1215)
chain: MNHIIQDKYIPQQLLYFLAGRRCCQQFPCTFRTSEHEAFANNARSLGLRSQVVHVNGNSCVKVYKQACRHYLEEPKTLVLSSGATLNMFTLLSRKSLMGKEDLELYADLVSMKANASDLPSLHLPLPAIRPPNLRFWTEAQLNFLTAFLGHSLSDEILQSLYASRVIVYNAALCWDKSVFLPLVILDDCRNKKSNVKIMCIERQAILATYNSQRTANFFGEQLGETVGIQLPYFSAVSSSTFIIYSTAQYFLRSLTSQQFRNISHLVVNDVHLHDPYTDILLSEIRMALSSHQNLRVVLLSQMGNPKKFTDFFGEGLQLNMIKQPEVAPRVSYLNELHSCIALAGIHKGPDIYKEIPEAFRANNPRNEQMDKCLQAYGELGTDAALRPFLYAVNYDLAPVNYRHSLTGKTAVHFASELNKANHLRLLLFMGADPYIVDLFQQNAISLAAMNGNHECIDVLNSYSLHGYVVKSAKPDFVDYDLIIDIMYLLRTKPEYSPGEYSPGNILIILPTYYHIVKLNYMILSHCLTGSLQECSIFLLYDNMRNDYLQALVNASDETVKVVLATDIIESLCLKVPFKYQIDTACRLNNVYDTTSCSGDDRFEWVAKDALLRRELILQPNKGDVQCFRLISKEAYEELSETSQPSLQTMQLDKICLAVKLLSPNTIISEYLGITISPPPLINVHHAVQFLKKIDVLDDAEDVTWLGCRLMDIPVSCQLGRMLIFGILLRCLDPILTIVSSLSTADPLGIPFTEDIDNLWDRFTIYIQNSIKKERTYLSDNQFSDHFIFVRLYKEWQNRMHNRTPPLYLKDEYEFMLNGLMEQLTSIRSEIVSSLRAANLIHSRGKLSMNNLNQMSCNWHMVKAALTGGMYPNIYAVDTRKSSLKSAFSGNVSMHPNTVLRDFLEPLNISAQSFRTPWIVCNRQKSHIVYATLVVPLAVAMFSGHPRIRLSPICDSEMSLTDRNVNVFIDEWIWMVMSKATAEMVMRTRYYFFKMYHDLLKHCSELDMWRRDCEPVSQYTVLTDTLSKIFESEDGFVGFFKPPPITFLPTPQLPSLYLLSVNAHFSWAREVEENMLSKPHHFNSHFIERQFFVLYAGGDCEEFHSRNTPAFIESVLGKFVRPIDTPNRHIFVILYRKDPDMMLSISRAKFVNGVFMLQEYFRNNIPVFEILDACVSLNVQTPVFDGRLMSALIDKRVGNLIMELFAFRHHWIHKR
Take B3: the binding entry in assay [1] is on record as “binds”.

The values above are taken from article PMC3603962.
